Results are given in words; binding and its absence hold for the method and conditions named. Tags and fused reporters may be left off the sequences shown.
B1: ITGA6 ectodomain fused to an Fc domain (Fc fusion, UniProt P23229 24-1050)
chain: FNLDTREDNVIRKYGDPGSLFGFSLAMHWQLQPEDKRLLLVGAPRAEALPLQRANRTGGLYSCDITARGPCTRIEFDNDADPTSESKEDQWMGVTVQSQGPGGKVVTCAHRYEKRQHVNTKQESRDIFGRCYVLSQNLRIEDDMDGGDWSFCDGRLRGHEKFGSCQQGVAATFTKDFHYIVFGAPGTYNWKGIVRVEQKNNTFFDMNIFEDGPYEVGGETEHDESLVPVPANSYLGLLFLTSVSYTDPDQFVYKTRPPREQPDTFPDVMMNSYLGFSLDSGKGIVSKDEITFVSGAPRANHSGAVVLLKRDMKSAHLLPEHIFDGEGLASSFGYDVAVVDLNKDGWQDIVIGAPQYFDRDGEVGGAVYVYMNQQGRWNNVKPIRLNGTKDSMFGIAVKNIGDINQDGYPDIAVGAPYDDLGKVFIYHGSANGINTKPTQVLKGISPYFGYSIAGNMDLDRNSYPDVAVGSLSDSVTIFRSRPVINIQKTITVTPNRIDLRQKTACGAPSGICLQVKSCFEYTANPAGYNPSISIVGTLEAEKERRKSGLSSRVQFRNQGSEPKYTQELTLKRQKQKVCMEETLWLQDNIRDKLRPIPITASVEIQEPSSRRRVNSLPEVLPILNSDEPKTAHIDVHFLKEGCGDDNVCNSNLKLEYKFCTREGNQDKFSYLPIQKGVPELVLKDQKDIALEITVTNSPSNPRNPTKDGDDAHEAKLIATFPDTLTYSAYRELRAFPEKQLSCVANQNGSQADCELGNPFKRNSNVTFYLVLSTTEVTFDTPDLDINLKLETTSNQDNLAPITAKAKVVIELLLSVSGVAKPSQVYFGGTVVGEQAMKSEDEVGSLIEYEFRVINLGKPLTNLGTATLNIQWPKEISNGKWLLYLVKVESKGLEKVTCEPQKEINSLNLTESHNSRKKREITEKQIDDNRKFSLFAERKYQTLNCSVNVNCVNIRCPLRGLDSKASLILRSRLWNSTFLEEYSKLNYLDILMRAFIDVTAAAENIRLPNAGTQVRVTVFPSKTVAQYS
B2: PCDH19 ectodomain fused to an Fc domain (Fc fusion, UniProt Q8TAB3 22-678)
chain: LINLKYSVEEEQRAGTVIANVAKDAREAGFALDPRQASAFRVVSNSAPHLVDINPSSGLLVTKQKIDRDLLCRQSPKCIISLEVMSSSMEICVIKVEIKDLNDNAPSFPAAQIELEISEAASPGTRIPLDSAYDPDSGSFGVQTYELTPNELFGLEIKTRGDGSRFAELVVEKSLDRETQSHYSFRITALDGGDPPRLGTVGLSIKVTDSNDNNPVFSESTYAVSVPENSPPNTPVIRLNASDPDEGTNGQVVYSFYGYVNDRTRELFQIDPHSGLVTVTGALDYEEGHVYELDVQAKDLGPNSIPAHCKVTVSVLDTNDNPPVINLLSVNSELVEVSESAPPGYVIALVRVSDRDSGLNGRVQCRLLGNVPFRLQEYESFSTILVDGRLDREQHDQYNLTIQARDGGVPMLQSAKSFTVLITDENDNHPHFSKPYYQVIVQENNTPGAYLLSVSARDPDLGLNGSVSYQIVPSQVRDMPVFTYVSINPNSGDIYALRSFNHEQTKAFEFKVLAKDGGLPSLQSNATVRVIILDVNDNTPVITAPPLINGTAEVYIPRNSGIGYLVTVVKAEDYDEGENGRVTYDMTEGDRGFFEIDQVNGEVRTTRTFGESSKSSYELIVVAHDHGKTSLSASALVLIYLSPALDAQESMGSVNLS
B3: ALCAM ectodomain fused to an Fc domain (Fc fusion, UniProt Q13740 28-527)
chain: WYTVNSAYGDTIIIPCRLDVPQNLMFGKWKYEKPDGSPVFIAFRSSTKKSVQYDDVPEYKDRLNLSENYTLSISNARISDEKRFVCMLVTEDNVFEAPTIVKVFKQPSKPEIVSKALFLETEQLKKLGDCISEDSYPDGNITWYRNGKVLHPLEGAVVIIFKKEMDPVTQLYTMTSTLEYKTTKADIQMPFTCSVTYYGPSGQKTIHSEQAVFDIYYPTEQVTIQVLPPKNAIKEGDNITLKCLGNGNPPPEEFLFYLPGQPEGIRSSNTYTLTDVRRNATGDYKCSLIDKKSMIASTAITVHYLDLSLNPSGEVTRQIGDALPVSCTISASRNATVVWMKDNIRLRSSPSFSSLHYQDAGNYVCETALQEVEGLKKRESLTLIVEGKPQIKMTKKTDPSGLSKTIICHVEGFPKPAIQWTITGSGSVINQTEESPYINGRYYSKIIISPEENVTLTCTAENQLERTVNSLNVSAISIPEHDEADEISDENREKVNDQAK
B4: NFASC ectodomain fused to an Fc domain (Fc fusion, UniProt O94856 25-1217)
chain: IEIPMDPSIQNELTQPPTITKQSAKDHIVDPRDNILIECEAKGNPAPSFHWTRNSRFFNIAKDPRVSMRRRSGTLVIDFRSGGRPEEYEGEYQCFARNKFGTALSNRIRLQVSKSPLWPKENLDPVVVQEGAPLTLQCNPPPGLPSPVIFWMSSSMEPITQDKRVSQGHNGDLYFSNVMLQDMQTDYSCNARFHFTHTIQQKNPFTLKVLTTRGVAERTPSFMYPQGTASSQMVLRGMDLLLECIASGVPTPDIAWYKKGGDLPSDKAKFENFNKALRITNVSEEDSGEYFCLASNKMGSIRHTISVRVKAAPYWLDEPKNLILAPGEDGRLVCRANGNPKPTVQWMVNGEPLQSAPPNPNREVAGDTIIFRDTQISSRAVYQCNTSNEHGYLLANAFVSVLDVPPRMLSPRNQLIRVILYNRTRLDCPFFGSPIPTLRWFKNGQGSNLDGGNYHVYENGSLEIKMIRKEDQGIYTCVATNILGKAENQVRLEVKDPTRIYRMPEDQVARRGTTVQLECRVKHDPSLKLTVSWLKDDEPLYIGNRMKKEDDSLTIFGVAERDQGSYTCVASTELDQDLAKAYLTVLADQATPTNRLAALPKGRPDRPRDLELTDLAERSVRLTWIPGDANNSPITDYVVQFEEDQFQPGVWHDHSKYPGSVNSAVLRLSPYVNYQFRVIAINEVGSSHPSLPSERYRTSGAPPESNPGDVKGEGTRKNNMEITWTPMNATSAFGPNLRYIVKWRRRETREAWNNVTVWGSRYVVGQTPVYVPYEIRVQAENDFGKGPEPESVIGYSGEDYPRAAPTEVKVRVMNSTAISLQWNRVYSDTVQGQLREYRAYYWRESSLLKNLWVSQKRQQASFPGDRLRGVVSRLFPYSNYKLEMVVVNGRGDGPRSETKEFTTPEGVPSAPRRFRVRQPNLETINLEWDHPEHPNGIMIGYTLKYVAFNGTKVGKQIVENFSPNQTKFTVQRTDPVSRYRFTLSARTQVGSGEAVTEESPAPPNEATPTAAPPTLPPTTVGATGAVSSTDATAIAATTEATTVPIIPTVAPTTIATTTTVATTTTTTAAATTTTESPPTTTSGTKIHESAPDEQSIWNVTVLPNSKWANITWKHNFGPGTDFVVEYIDSNHTKKTVPVKAQAQPIQLTDLYPGMTYTLRVYSRDNEGISSTVITFMTSTAYTNNQADIATQGW
B5: CDH11 ectodomain fused to an Fc domain (Fc fusion, UniProt P55287 54-617)
chain: GWVWNQFFVIEEYTGPDPVLVGRLHSDIDSGDGNIKYILSGEGAGTIFVIDDKSGNIHATKTLDREERAQYTLMAQAVDRDTNRPLEPPSEFIVKVQDINDNPPEFLHETYHANVPERSNVGTSVIQVTASDADDPTYGNSAKLVYSILEGQPYFSVEAQTGIIRTALPNMDREAKEEYHVVIQAKDMGGHMGGLSGTTKVTITLTDVNDNPPKFPQSVYQMSVSEAAVPGEEVGRVKAKDPDIGENGLVTYNIVDGDGMESFEITTDYETQEGVIKLKKPVDFETKRAYSLKVEAANVHIDPKFISNGPFKDTVTVKISVEDADEPPMFLAPSYIHEVQENAAAGTVVGRVHAKDPDAANSPIRYSIDRHTDLDRFFTINPEDGFIKTTKPLDREETAWLNITVFAAEIHNRHQEAKVPVAIRVLDVNDNAPKFAAPYEGFICESDQTKPLSNQPIVTISADDKDDTANGPRFIFSLPPEIIHNPNFTVRDNRDNTAGVYARRGGFSRQKQDLYLLPIVISDGGIPPMSSTNTLTIKVCGCDVNGALLSCNAEAYILNAGLST
B6: CDH6 ectodomain fused to an Fc domain (Fc fusion, UniProt P55285 54-615)
chain: SWMWNQFFLLEEYTGSDYQYVGKLHSDQDRGDGSLKYILSGDGAGDLFIINENTGDIQATKRLDREEKPVYILRAQAINRRTGRPVEPESEFIIKIHDINDNEPIFTKEVYTATVPEMSDVGTFVVQVTATDADDPTYGNSAKVVYSILQGQPYFSVESETGIIKTALLNMDRENREQYQVVIQAKDMGGQMGGLSGTTTVNITLTDVNDNPPRFPQSTYQFKTPESSPPGTPIGRIKASDADVGENAEIEYSITDGEGLDMFDVITDQETQEGIITVKKLLDFEKKKVYTLKVEASNPYVEPRFLYLGPFKDSATVRIVVEDVDEPPVFSKLAYILQIREDAQINTTIGSVTAQDPDAARNPVKYSVDRHTDMDRIFNIDSGNGSIFTSKLLDRETLLWHNITVIATEINNPKQSSRVPLYIKVLDVNDNAPEFAEFYETFVCEKAKADQLIQTLHAVDKDDPYSGHQFSFSLAPEAASGSNFTIQDNKDNTAGILTRKNGYNRHEMSTYLLPVVISDNDYPVQSSTGTVTVRVCACDHHGNMQSCHAEALIHPTGLSTGA

The chains behind the UniProt entries cited, without tags or fusion partners. Residues count along the entry.
UniProt Q96QE4, residues 28-905: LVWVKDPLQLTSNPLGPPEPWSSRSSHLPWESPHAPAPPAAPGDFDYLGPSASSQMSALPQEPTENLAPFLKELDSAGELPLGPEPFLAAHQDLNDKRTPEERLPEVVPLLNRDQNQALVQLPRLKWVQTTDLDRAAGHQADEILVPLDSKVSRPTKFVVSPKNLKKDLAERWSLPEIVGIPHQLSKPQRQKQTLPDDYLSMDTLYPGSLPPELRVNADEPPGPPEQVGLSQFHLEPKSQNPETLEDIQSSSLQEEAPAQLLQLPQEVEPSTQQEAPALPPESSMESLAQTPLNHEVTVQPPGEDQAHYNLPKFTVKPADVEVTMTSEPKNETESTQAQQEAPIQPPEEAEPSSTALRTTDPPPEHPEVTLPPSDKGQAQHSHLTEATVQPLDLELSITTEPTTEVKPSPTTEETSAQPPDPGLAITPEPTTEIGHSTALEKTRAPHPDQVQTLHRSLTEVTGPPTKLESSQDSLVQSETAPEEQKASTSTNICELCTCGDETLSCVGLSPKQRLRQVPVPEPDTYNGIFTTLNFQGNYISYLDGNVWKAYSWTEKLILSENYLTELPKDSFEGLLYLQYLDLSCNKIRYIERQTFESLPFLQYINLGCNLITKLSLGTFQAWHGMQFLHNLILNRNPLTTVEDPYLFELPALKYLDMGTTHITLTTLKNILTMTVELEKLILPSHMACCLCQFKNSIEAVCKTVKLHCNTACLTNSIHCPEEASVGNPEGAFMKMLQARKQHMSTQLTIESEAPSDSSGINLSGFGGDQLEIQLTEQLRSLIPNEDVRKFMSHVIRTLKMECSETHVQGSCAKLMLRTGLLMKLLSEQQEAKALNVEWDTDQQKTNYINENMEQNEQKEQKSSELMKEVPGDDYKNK
UniProt Q9Y6N7, residues 26-897: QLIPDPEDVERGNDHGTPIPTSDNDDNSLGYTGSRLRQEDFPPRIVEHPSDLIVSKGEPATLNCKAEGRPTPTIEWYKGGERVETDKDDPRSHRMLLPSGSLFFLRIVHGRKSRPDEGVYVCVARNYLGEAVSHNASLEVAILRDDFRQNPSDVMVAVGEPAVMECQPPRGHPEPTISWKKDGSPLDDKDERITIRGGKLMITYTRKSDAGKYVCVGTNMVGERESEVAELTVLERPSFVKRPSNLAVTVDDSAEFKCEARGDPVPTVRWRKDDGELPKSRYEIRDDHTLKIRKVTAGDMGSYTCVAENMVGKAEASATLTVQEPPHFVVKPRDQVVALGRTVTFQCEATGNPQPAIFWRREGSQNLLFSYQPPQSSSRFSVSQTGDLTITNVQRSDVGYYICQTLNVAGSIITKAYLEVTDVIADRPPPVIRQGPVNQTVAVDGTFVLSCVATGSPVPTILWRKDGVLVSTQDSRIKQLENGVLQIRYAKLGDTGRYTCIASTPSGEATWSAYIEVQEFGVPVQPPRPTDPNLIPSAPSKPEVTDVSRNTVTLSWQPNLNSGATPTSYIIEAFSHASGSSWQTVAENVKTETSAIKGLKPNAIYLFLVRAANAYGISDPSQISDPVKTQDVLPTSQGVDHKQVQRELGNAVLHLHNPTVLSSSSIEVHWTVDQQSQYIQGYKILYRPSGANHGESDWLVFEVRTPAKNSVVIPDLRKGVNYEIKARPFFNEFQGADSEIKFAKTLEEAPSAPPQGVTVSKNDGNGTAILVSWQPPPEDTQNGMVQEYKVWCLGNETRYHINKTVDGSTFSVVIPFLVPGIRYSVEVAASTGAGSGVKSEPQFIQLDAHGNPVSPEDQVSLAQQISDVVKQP
UniProt Q8IZJ1, residues 27-377: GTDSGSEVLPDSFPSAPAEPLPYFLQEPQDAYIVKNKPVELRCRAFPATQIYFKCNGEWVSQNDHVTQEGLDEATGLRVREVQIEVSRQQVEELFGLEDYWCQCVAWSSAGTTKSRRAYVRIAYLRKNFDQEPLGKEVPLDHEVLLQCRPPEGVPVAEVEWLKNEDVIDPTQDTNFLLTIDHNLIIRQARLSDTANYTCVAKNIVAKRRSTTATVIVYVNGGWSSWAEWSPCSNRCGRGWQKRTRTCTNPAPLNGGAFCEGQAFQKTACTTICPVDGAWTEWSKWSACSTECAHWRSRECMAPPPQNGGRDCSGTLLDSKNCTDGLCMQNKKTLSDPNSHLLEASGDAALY
UniProt P06756, residues 31-992: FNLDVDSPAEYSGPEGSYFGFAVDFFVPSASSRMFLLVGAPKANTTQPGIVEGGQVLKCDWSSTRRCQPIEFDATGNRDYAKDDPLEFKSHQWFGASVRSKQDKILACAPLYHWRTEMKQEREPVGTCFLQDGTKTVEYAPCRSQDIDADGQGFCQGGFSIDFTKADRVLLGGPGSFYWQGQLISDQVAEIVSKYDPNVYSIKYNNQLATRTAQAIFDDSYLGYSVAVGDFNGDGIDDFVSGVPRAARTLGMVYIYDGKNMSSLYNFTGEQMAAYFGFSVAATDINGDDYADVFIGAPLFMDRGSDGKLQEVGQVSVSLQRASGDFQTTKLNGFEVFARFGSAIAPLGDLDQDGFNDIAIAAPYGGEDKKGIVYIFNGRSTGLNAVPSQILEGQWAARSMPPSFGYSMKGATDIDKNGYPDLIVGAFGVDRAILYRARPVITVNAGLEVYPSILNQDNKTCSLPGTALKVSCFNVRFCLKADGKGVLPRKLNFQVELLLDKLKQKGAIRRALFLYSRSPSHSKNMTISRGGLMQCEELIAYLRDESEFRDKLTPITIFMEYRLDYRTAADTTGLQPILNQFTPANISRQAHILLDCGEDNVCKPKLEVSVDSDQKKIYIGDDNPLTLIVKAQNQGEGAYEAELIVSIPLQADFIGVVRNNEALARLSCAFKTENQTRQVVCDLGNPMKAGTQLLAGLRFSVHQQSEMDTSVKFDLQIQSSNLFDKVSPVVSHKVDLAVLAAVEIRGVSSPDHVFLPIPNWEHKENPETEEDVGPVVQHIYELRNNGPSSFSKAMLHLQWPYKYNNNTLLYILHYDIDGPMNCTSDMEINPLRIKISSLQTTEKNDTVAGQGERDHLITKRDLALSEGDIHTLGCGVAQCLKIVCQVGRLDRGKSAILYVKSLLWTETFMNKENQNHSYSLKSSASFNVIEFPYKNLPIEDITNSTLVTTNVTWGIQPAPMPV
UniProt Q92629, residues 57-289: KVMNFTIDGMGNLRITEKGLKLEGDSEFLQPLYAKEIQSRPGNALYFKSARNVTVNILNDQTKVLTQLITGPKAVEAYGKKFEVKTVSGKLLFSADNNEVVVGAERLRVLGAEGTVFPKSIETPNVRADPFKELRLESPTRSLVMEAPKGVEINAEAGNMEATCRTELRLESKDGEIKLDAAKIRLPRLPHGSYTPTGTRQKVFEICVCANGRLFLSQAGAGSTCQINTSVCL
UniProt Q6N022, residues 367-2769: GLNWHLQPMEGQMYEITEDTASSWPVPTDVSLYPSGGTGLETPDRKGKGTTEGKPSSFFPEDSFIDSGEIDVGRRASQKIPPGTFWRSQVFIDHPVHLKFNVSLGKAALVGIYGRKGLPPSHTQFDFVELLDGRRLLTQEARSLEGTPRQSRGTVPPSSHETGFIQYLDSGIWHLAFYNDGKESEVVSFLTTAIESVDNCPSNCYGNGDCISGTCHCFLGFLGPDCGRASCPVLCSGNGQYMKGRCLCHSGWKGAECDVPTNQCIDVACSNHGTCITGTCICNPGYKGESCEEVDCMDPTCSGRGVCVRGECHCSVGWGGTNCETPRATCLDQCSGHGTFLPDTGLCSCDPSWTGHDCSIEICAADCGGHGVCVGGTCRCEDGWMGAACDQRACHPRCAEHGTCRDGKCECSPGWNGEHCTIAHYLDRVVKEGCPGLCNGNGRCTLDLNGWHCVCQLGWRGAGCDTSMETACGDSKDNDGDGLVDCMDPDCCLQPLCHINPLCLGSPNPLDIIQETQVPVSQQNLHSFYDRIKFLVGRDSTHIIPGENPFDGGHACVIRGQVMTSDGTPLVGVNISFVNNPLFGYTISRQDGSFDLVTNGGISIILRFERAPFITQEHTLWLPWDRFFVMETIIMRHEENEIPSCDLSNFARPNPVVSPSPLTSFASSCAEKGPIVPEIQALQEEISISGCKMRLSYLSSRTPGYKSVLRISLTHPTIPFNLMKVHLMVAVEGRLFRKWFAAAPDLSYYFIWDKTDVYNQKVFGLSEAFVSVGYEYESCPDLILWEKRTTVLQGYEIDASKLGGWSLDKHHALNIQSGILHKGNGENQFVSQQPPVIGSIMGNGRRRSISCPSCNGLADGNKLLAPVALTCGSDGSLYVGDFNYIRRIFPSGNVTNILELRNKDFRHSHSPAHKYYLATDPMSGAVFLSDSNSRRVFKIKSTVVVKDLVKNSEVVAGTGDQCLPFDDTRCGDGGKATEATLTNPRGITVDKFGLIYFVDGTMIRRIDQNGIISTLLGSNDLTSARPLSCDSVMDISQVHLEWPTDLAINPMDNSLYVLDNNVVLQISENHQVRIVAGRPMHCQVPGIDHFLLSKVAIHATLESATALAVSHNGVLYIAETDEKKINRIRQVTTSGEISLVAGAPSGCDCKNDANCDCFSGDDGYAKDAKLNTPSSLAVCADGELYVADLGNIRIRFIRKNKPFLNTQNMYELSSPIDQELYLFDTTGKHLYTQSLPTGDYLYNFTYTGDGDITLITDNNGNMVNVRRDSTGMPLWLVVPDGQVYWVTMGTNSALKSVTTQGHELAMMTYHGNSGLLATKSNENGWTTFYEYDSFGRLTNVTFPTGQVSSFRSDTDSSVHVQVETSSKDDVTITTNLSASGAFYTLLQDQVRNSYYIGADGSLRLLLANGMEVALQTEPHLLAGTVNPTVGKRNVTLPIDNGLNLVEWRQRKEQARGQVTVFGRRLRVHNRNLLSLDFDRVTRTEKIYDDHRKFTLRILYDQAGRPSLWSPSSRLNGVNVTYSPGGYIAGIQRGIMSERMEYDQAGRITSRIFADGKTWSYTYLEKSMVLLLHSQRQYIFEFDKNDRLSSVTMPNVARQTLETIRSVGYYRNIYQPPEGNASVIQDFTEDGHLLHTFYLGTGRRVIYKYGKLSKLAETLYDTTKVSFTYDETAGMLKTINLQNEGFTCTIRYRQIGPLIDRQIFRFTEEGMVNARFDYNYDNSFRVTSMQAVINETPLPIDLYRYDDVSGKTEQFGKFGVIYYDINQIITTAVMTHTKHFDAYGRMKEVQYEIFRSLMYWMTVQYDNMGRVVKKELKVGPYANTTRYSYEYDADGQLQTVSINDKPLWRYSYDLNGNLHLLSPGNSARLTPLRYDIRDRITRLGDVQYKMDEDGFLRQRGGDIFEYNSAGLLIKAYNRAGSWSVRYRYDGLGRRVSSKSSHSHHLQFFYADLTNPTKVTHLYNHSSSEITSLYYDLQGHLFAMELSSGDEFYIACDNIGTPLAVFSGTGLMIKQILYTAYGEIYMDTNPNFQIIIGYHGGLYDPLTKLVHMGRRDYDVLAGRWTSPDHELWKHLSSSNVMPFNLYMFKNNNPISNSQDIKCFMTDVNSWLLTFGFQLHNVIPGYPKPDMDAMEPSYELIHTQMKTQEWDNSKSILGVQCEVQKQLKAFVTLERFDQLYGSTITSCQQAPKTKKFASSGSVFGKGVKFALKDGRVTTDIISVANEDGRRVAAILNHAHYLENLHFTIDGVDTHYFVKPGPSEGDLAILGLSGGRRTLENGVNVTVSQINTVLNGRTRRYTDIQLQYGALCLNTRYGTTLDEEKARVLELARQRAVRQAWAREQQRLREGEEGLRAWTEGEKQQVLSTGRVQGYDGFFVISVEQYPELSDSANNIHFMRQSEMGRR
UniProt Q8N608, residues 56-796: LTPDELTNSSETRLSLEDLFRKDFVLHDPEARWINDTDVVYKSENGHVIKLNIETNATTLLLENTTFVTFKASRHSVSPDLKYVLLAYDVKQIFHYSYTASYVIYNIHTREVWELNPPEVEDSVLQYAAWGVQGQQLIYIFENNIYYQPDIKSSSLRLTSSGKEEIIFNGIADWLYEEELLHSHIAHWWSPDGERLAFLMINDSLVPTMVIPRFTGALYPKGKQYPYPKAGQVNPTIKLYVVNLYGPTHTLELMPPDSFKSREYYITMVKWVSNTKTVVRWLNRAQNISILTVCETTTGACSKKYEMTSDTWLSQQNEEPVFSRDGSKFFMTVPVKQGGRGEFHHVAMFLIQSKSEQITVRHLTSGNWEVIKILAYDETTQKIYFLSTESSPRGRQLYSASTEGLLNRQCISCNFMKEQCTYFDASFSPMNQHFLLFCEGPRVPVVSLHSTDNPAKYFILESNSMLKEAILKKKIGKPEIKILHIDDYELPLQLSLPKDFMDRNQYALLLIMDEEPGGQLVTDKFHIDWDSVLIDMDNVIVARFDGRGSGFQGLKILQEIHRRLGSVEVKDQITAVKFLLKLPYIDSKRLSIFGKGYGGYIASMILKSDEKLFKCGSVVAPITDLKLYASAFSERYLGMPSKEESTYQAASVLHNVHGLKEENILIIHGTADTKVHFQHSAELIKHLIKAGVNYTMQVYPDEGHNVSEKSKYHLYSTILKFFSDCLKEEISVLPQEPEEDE

Biological target: LRRC37B_ECTO fused with alkaline phosphatase (human) (UniProt Q96QE4)
Test: ELISA

Molecule | binding
ROBO1 ectodomain fused to an Fc domain (from UniProt Q9Y6N7 26-897) (Fc fusion) | no binding
LRRN1 ectodomain fused to an Fc domain (from UniProt Q6UXK5 26-631) (Fc fusion) | no binding
CNTNAP5 ectodomain fused to an Fc domain (from UniProt Q8WYK1 25-1237) (Fc fusion) | no binding
LRRN2 ectodomain fused to an Fc domain (from UniProt O75325 19-630) (Fc fusion) | no binding
UNC5B ectodomain fused to an Fc domain (from UniProt Q8IZJ1 27-377) (Fc fusion) | no binding
ITGAV ectodomain fused to an Fc domain (from UniProt P06756 31-992) (Fc fusion) | no binding
THSD7A ectodomain fused to an Fc domain (from UniProt Q9UPZ6 48-1607) (Fc fusion) | no binding
SGCD ectodomain fused to an Fc domain (from UniProt Q92629 57-289) (Fc fusion) | no binding
TENM4 ectodomain fused to an Fc domain (from UniProt Q6N022 367-2769) (Fc fusion) | no binding
DPP10 ectodomain fused to an Fc domain (from UniProt Q8N608 56-796) (Fc fusion) | no binding
CDH4 ectodomain fused to an Fc domain (from UniProt P55283 170-734) (Fc fusion) | no binding
B1 | no binding
B2 | no binding
B3 | no binding
B4 | no binding
B5 | no binding
B6 | no binding
